Test results as given in the supplement of paper PMC7666118.
This is one part of the list.

Sequences of proteins named here, by UniProt entry; tags and fusion partners are left off. A change or cut given only in a name is not applied to a line headed by its entry.
UniProt Q15007: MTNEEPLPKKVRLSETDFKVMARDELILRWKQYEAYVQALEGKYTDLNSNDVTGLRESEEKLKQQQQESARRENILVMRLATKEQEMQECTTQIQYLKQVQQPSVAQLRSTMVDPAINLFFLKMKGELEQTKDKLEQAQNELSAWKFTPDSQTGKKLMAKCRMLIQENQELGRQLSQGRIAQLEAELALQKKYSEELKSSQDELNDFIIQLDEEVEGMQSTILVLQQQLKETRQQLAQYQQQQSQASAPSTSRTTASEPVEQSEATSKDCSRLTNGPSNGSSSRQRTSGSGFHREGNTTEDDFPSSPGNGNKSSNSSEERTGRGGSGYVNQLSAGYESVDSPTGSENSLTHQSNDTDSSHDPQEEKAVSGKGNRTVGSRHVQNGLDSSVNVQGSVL
UniProt Q9C0J8: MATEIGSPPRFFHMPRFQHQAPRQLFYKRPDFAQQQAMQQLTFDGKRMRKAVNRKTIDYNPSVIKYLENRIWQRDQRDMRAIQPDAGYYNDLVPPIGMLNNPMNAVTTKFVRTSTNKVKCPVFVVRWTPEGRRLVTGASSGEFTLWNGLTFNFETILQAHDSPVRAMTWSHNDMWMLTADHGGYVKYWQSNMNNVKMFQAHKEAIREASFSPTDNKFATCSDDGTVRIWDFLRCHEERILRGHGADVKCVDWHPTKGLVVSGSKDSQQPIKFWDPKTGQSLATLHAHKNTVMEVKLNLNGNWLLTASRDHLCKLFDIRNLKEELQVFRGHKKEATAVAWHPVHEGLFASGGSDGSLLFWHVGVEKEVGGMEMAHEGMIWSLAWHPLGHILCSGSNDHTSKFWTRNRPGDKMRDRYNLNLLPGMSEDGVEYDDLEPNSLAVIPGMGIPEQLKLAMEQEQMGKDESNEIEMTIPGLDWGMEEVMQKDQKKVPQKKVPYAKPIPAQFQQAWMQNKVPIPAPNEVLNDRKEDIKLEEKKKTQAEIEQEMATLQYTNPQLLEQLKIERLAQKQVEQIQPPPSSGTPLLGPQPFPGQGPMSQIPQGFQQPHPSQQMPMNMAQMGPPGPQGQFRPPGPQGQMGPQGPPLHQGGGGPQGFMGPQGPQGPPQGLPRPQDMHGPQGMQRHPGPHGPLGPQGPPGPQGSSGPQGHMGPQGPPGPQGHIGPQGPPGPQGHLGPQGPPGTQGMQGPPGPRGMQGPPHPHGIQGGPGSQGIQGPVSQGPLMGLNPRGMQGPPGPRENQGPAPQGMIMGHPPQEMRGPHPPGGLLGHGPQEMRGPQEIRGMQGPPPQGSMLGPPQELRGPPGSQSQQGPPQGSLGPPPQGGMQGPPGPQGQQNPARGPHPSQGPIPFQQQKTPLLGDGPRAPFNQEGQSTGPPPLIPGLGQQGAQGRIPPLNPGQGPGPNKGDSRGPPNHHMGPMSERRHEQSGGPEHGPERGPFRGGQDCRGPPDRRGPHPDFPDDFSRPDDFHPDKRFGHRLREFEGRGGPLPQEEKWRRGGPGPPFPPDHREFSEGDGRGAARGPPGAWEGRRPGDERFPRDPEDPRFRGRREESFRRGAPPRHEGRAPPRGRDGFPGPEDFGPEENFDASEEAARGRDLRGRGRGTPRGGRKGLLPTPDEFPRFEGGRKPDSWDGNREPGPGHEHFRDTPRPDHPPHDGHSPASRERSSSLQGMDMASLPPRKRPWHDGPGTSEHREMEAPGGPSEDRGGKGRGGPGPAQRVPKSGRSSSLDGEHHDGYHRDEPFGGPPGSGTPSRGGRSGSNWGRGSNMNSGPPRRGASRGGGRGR
UniProt O00258: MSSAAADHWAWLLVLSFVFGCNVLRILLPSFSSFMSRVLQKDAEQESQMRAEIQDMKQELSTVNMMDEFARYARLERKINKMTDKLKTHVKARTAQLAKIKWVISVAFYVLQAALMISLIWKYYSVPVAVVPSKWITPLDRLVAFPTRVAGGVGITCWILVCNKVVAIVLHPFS
UniProt Q8TCF1: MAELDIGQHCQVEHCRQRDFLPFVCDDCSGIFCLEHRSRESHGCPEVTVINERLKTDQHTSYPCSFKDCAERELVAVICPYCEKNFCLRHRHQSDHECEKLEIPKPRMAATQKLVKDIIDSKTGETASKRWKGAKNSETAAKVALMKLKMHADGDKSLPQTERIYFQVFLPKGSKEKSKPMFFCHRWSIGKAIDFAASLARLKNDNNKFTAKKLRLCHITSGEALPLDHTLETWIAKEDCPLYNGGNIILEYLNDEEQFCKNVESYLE
UniProt Q96S55: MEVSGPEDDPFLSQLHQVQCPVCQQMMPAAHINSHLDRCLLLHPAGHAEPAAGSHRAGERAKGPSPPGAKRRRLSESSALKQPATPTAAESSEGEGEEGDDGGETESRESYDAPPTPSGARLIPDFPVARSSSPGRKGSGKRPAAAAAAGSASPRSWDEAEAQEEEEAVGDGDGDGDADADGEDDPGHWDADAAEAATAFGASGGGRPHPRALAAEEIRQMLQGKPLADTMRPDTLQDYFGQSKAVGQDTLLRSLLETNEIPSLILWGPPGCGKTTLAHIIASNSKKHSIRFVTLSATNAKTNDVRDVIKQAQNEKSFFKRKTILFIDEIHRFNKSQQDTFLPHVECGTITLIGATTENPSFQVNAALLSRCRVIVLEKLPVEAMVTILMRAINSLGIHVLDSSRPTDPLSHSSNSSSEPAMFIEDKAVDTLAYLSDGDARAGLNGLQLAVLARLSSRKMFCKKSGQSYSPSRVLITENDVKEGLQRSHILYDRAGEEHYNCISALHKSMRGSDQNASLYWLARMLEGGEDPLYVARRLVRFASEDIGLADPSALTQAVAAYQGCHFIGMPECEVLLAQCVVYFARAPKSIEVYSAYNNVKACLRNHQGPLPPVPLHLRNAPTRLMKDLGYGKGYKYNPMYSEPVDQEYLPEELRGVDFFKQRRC
UniProt Q19AV6: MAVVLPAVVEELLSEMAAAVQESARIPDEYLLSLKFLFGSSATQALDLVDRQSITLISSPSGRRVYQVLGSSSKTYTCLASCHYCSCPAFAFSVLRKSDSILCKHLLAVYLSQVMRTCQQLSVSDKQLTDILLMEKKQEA
UniProt Q9BYJ9: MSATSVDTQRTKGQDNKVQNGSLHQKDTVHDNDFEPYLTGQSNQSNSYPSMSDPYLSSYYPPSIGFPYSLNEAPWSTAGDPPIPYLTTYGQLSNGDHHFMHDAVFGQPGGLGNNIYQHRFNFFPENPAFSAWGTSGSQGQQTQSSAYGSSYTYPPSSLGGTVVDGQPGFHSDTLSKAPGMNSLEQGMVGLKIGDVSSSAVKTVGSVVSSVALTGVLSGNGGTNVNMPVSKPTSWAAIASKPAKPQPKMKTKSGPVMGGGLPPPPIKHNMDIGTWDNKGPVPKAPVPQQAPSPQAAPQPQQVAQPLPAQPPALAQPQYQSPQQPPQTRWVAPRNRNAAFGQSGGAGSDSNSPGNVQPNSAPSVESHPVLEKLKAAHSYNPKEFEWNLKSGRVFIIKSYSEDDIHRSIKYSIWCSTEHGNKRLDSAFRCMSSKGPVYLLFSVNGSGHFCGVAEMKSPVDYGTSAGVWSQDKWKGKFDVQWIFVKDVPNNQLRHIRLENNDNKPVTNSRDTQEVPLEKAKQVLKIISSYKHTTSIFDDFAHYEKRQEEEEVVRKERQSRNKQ
UniProt Q9NQH7: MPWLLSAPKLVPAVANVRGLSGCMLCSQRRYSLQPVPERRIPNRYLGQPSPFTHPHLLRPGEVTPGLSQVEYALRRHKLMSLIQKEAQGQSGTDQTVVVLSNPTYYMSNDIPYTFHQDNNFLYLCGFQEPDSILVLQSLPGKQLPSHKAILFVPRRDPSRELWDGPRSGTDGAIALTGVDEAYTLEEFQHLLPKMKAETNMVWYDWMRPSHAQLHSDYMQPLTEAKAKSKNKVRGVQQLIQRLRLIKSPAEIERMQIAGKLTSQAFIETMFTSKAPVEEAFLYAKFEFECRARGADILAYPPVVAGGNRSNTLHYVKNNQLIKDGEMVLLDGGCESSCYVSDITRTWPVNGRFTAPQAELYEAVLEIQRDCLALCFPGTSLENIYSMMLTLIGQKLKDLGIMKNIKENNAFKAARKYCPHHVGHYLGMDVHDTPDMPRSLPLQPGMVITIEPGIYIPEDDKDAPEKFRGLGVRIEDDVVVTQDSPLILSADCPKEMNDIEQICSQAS
UniProt Q9NUD5: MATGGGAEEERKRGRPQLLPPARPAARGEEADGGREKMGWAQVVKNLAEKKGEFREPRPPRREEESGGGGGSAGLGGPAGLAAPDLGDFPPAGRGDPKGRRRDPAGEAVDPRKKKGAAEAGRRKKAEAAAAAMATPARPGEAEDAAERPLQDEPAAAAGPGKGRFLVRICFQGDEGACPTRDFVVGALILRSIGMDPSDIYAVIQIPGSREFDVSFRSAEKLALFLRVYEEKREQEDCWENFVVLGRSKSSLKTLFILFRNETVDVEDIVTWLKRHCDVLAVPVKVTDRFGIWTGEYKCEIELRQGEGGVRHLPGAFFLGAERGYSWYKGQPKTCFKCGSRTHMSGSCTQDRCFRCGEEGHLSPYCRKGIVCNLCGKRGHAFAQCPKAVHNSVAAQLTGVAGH
UniProt O43379: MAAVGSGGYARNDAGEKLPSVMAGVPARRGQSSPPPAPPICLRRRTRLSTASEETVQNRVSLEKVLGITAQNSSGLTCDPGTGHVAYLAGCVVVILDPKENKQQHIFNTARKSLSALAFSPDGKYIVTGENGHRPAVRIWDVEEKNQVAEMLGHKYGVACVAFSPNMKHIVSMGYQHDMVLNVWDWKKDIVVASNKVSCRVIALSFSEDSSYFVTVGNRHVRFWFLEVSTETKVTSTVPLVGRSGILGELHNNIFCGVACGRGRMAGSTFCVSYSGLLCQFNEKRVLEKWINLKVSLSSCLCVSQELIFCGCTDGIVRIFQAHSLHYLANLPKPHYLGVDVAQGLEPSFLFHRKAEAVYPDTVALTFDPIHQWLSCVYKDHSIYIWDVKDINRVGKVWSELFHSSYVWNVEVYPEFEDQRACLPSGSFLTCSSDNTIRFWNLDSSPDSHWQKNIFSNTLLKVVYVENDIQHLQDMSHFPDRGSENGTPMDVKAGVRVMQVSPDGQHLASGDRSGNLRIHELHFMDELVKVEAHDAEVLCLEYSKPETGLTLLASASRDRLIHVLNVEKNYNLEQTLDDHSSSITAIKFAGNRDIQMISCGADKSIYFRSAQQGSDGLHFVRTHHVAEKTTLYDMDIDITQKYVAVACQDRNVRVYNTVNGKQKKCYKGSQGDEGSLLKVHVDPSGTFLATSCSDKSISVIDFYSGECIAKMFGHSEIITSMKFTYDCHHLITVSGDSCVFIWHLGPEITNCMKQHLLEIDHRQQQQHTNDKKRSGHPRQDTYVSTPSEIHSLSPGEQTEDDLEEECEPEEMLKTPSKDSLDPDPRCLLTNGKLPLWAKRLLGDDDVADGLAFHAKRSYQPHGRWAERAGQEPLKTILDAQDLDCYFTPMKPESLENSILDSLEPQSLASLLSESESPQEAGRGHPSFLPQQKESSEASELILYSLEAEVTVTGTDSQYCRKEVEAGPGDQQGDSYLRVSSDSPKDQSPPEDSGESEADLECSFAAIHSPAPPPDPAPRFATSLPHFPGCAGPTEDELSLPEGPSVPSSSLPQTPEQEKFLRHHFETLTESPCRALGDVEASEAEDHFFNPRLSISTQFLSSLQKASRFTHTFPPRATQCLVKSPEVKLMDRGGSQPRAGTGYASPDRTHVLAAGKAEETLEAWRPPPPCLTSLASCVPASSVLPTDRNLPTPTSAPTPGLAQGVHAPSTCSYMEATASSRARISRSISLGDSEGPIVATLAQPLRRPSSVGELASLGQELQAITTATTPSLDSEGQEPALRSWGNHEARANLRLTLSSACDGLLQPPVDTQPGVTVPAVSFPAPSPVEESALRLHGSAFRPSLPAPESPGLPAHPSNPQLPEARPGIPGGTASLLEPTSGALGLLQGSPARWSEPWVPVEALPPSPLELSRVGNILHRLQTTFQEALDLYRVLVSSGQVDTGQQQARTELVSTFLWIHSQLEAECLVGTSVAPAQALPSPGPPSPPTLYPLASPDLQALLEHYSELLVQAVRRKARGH
UniProt P31946: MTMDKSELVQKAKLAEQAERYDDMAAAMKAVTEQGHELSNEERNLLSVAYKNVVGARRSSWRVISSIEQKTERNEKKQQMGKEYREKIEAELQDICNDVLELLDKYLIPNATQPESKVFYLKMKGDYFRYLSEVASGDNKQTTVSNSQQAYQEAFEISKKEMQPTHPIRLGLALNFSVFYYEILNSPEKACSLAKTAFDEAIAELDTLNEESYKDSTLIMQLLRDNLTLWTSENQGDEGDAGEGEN
UniProt Q5W0Z9: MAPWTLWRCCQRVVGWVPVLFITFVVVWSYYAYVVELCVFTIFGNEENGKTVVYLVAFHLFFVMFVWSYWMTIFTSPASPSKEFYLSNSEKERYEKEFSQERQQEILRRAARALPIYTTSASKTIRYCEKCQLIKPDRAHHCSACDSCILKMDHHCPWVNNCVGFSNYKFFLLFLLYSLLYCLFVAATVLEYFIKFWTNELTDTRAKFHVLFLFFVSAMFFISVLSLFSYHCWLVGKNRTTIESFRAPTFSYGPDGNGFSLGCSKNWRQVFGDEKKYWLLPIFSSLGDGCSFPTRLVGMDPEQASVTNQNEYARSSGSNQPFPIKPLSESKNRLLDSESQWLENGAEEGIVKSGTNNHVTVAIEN

compound: COc1ccc(Cn2ccc3cc(C)c(C(=O)NO)cc32)cc1; experiment: dose-dependent thermal stabilisation call (2D-TPP, DLPTP, 10% FDR) (binary (1 = stabilised)); higher = stabilised by the compound; conditions: system: HL-60 intact cells; concentration range 0.04-10 µM
Procedure: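 2D thermal proteome profiling in intact HL-60 cells treated with BRD-3811 (0, 0.04, 0.29, 2, 10 uM) for 90 min at 37 C, then heated 3 min at one of 12 temperatures (42-63.9 C). Soluble protein was quantified by TMT10 MS. The value is the DLPTP call of the paper: dose-dependent thermal stabilisation over all temperatures at 10% FDR (F-test of a dose-response against a flat model); one experiment, one call per tested protein.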

Row | Target | dose-dependent thermal stabilisation call
1 | WDR48 (UniProt Q8TAF3) | inactive: 0
2 | WDR91 (UniProt A4D1P6) | inactive: 0
3 | ZFP36L2 (UniProt P47974) | inactive: 0
4 | WTAP (UniProt Q15007) | inactive: 0
5 | WDR33 (UniProt Q9C0J8) | inactive: 0
6 | WRB (UniProt O00258) | inactive: 0
7 | ZFAND1 (UniProt Q8TCF1) | inactive: 0
8 | ZNHIT3 (UniProt Q15649) | inactive: 0
9 | ZFAND2B (UniProt Q8WV99) | inactive: 0
10 | ZNF768 (UniProt Q9H5H4) | inactive: 0
11 | WRNIP1 (UniProt Q96S55) | inactive: 0
12 | YARS2 (UniProt Q9Y2Z4) | inactive: 0
13 | ZSWIM7 (UniProt Q19AV6) | inactive: 0
14 | WDR68 (UniProt P61962) | inactive: 0
15 | ZNF646 (UniProt O15015) | inactive: 0
16 | YWHAZ (UniProt P63104) | inactive: 0
17 | ZNF217 (UniProt O75362) | inactive: 0
18 | WHSC2 (UniProt Q9H3P2) | inactive: 0
19 | WDR36 (UniProt Q8NI36) | inactive: 0
20 | YTHDF1 (UniProt Q9BYJ9) | inactive: 0

Row | Target | dose-dependent thermal stabilisation call
21 | XPNPEP3 (UniProt Q9NQH7) | inactive: 0
22 | ch-TOG | inactive: 0
23 | ZDHHC17 (UniProt Q8IUH5) | inactive: 0
24 | ZCCHC3 (UniProt Q9NUD5) | inactive: 0
25 | WDR81 (UniProt Q562E7) | inactive: 0
26 | WDR73 (UniProt Q6P4I2) | inactive: 0
27 | ZFYVE20 (UniProt Q9H1K0) | inactive: 0
28 | ZNF512B (UniProt Q96KM6) | inactive: 0
29 | WDR62 (UniProt O43379) | inactive: 0
30 | YWHAE (UniProt P62258) | inactive: 0
31 | ZNF148 (UniProt Q9UQR1) | inactive: 0
32 | ZNF143 (UniProt P52747) | inactive: 0
33 | YWHAB (UniProt P31946) | inactive: 0
34 | ZMYM1 (UniProt Q5SVZ6) | inactive: 0
35 | ZNF609 (UniProt O15014) | inactive: 0
36 | YIPF3 (UniProt Q9GZM5) | inactive: 0
37 | ZDHHC20 (UniProt Q5W0Z9) | inactive: 0
38 | ZNF428 (UniProt Q96B54) | inactive: 0
39 | ZFYVE27 (UniProt Q5T4F4) | inactive: 0
40 | ZYG11BL (UniProt Q7Z7L7) | inactive: 0

Entries 8 to 10, quoted:
Row | Target | dose-dependent thermal stabilisation call
8 | ZNHIT3 (UniProt Q15649) | inactive: 0
9 | ZFAND2B (UniProt Q8WV99) | inactive: 0
10 | ZNF768 (UniProt Q9H5H4) | inactive: 0
